The source of these data is patent publication US8975259B2, “Compositions and methods for inhibiting G protein signaling” (University of Rochester, priority 2007, dated 2015).

“And” between values parts separate entries of the source, which are not always exact repeats. Identical values can stand only once.

For orientation: ED50 means the dose at which the effect has come halfway, by size or by number of responders.

For test [1], the system named is opioid-induced antinociception in mice. Put plainly: 55° C. warm-water tail-flick antinociception. Type of test: in vivo, mouse.
Test [2] relates to acute morphine antinociceptive tolerance in mice. Put plainly: Acute morphine antinociceptive tolerance (repeated i.c.v. dosing, tail-flick). Format: in vivo, mouse. To be noted: morphine alone.

As for `CN1CC[C@]23c4c5ccc(O)c4O[C@H]2[C@@H](O)C=C[C@H]3[C@H]1C5.O=S(=O)(O)O` [morphine, Morphine sulfate], the ED50 in test [1] (Mus musculus, sc, read-out: ED50 of morphine alone, systemic) was found to be 5 mg/kg. In addition, the “ED50 of opioid agonist alone” value in test [1] (mouse, in vivo, sulfate) was 0.74 nmol and 0.743 (0.341-1.62) nmol. Also, the results for the “ED50 of i.c.v. morphine” value in test [2] (4 hr), in test [2] (6 hr) and in test [2] (time 0) were 4.9 nmol, 9.6 nmol and 0.59 nmol, respectively.
